Measurements: patent publication US10092648B2 (Zealand Pharma A/S, priority 2006, dated 2018)

Assays:
[1] = general procedure: Fmoc solid-phase peptide synthesis; TentaGel S RAM, TentaGel S RAM-Lys(Boc)Fmoc, TentaGel S PHB, TentaGel S PHB Lys(Boc)Fmoc (0.22-0.31 mmol/g); preformed Fmoc-protected HOBt esters (3 eq.)
[2] = general procedure: Fmoc solid-phase peptide synthesis; TentaGel S RAM; preformed Fmoc-protected HOBt esters (3 eq.); details: whole synthesis, trifluoroacetate salt; for isolated mass: scale 0.2 mmol/g, 1 g; for final purity (method not given): scale of the general procedure 1 g resin, 0.22-0.31 mmol/g, run 2
[3] = general procedure: Fmoc solid-phase peptide synthesis; TentaGel S RAM-Lys(Boc)-Fmoc; preformed Fmoc-protected HOBt esters (3 eq.); details: whole synthesis, scale 0.24 mmol/g, 1 g, trifluoroacetate salt
[4] = whole synthesis, scale of the general procedure 1 g resin, 0.22-0.31 mmol/g, trifluoroacetate salt
[5] = whole synthesis, scale of the general procedure 1 g resin, 0.22-0.31 mmol/g, trifluoroacetate salt, run 1

Substance: H-HGEGSFSDELATI LEALAASDFIAWLIATKITDKKKKKK-NH2
- final purity (method not given) [1, 4]: 93%

Substance: H-HGEGSFSDELATILEALAAADFIAWLIATKITD-NH2
- final purity (method not given) ([1]; purification step, acetate salt): better than 90%
- final purity (method not given) ([1]; purification step, chloride salt): better than 90%
- final purity (method not given) [1, 5]: 93%
- isolated mass [2]: 413 mg
- final purity (method not given) [2]: better than 93%

Substance: H-HGEGSFSDELATILEALAAADFIAWLIATKITDKKKKKK-NH2
- final purity (method not given) [3]: better than 90%
- final purity (method not given) [1, 4]: 97%

Substance: H-HGEGSFSDELATILEALAAADFIAWLISTKITD-NH2
- final purity (method not given) [1, 4]: 92%

Substance: H-HGEGSFSDELATILEALAAADFIAWLISTKITDKKKKKK-NH2
- final purity (method not given) [1, 4]: 98%

Substance: H-HGEGSFSDELATILEALAAADFISWLIATKITD-NH2
- final purity (method not given) [1, 4]: 97%

Substance: H-HGEGSFSDELATILEALAAADFISWLIATKITDKKKKKK-NH2
- final purity (method not given) [1, 4]: 93%

Substance: H-HGEGSFSDELATILEALAASDFIAWLIATKITD-NH2
- final purity (method not given) [1, 4]: 98%

Substance: H-HGEGSFSDELATILEALAASDFISWLISTKITD-NH2
- final purity (method not given) [1, 5]: 91%
- isolated mass [2]: 132 mg
- final purity (method not given) [2]: better than 91%

Substance: H-HGEGSFSDELATILEALAASDFISWLISTKITDKKKKKK-NH2
- final purity (method not given) [3]: better than 90%
- final purity (method not given) [1, 4]: 97%

Substance: H-HGEGSFSDELATILESLAAADFIAWLIATKITD-NH2
- final purity (method not given) [1, 4]: 91%

Substance: H-HGEGSFSDELATILESLAAADFIAWLIATKITDKKKKKK-NH2
- final purity (method not given) [1, 4]: 98%

Substance: H-HGEGSFSDELATILESLAAADFISWLIATKITD-NH2
- final purity (method not given) [1, 4]: 91%

Substance: H-HGEGSFSDELATILESLAAADFISWLIATKITDKKKKKK-NH2
- final purity (method not given) [1, 4]: 95%

Substance: H-HGEGSFSDELATILESLAASDFISWLISTKITD-NH2
- final purity (method not given) [1, 4]: 80%

Substance: H-HGEGSFSDELATILESLAASDFISWLISTKITDKKKKKK-NH2
- final purity (method not given) [1, 4]: 89%

Substance: H-HGEGSFSDELETILEELAAEDFIEWLIETKITD-NH2
- final purity (method not given) [1, 4]: 88%

Substance: H-HGEGSFSDELETILEELAAEDFIEWLIETKITDKKKKKK-NH2
- final purity (method not given) [1, 4]: 93%

Substance: H-HGEGSFSDELFTILEFLAASDFISWLISTKITD-NH2
- final purity (method not given) [1, 4]: 75%

Substance: H-HGEGSFSDELFTILEFLAASDFISWLISTKITDKKKKKK-NH2
- final purity (method not given) [1, 4]: 93%

Substance: H-HGEGSFSDELKTILEKLAAKDFIKWLIKTKITDKKKKKK-NH2
- final purity (method not given) [1, 4]: 96%

Substance: H-HGEGSFSDELKTILESLAAADFIEWLIQTKITD-NH2
- final purity (method not given) [1, 4]: 94%

Substance: H-HGEGSFSDELKTILESLAAADFIEWLIQTKITDKKKKKK-NH2
- final purity (method not given) [1, 4]: 96%

Substance: H-HGEGSFSDELLTILELLAAADFIAWLIATKITDKKKKKK-NH2
- final purity (method not given) [1, 4]: 88%

Substance: H-HGEGSFSDELLTILELLAALDFIAWLIATKITDKKKKKK-NH2
- final purity (method not given) [1, 4]: 88%

Substance: H-HGEGSFSDELLTILELLAALDFILWLILTKITDKKKKKK-NH2
- final purity (method not given) [1, 4]: 78%

Substance: H-HGEGSFSDELLTILELLAASDFISWLISTKITD-NH2
- final purity (method not given) [1, 4]: 84%

Substance: H-HGEGSFSDELLTILELLAASDFISWLISTKITDKKKKKK-NH2
- final purity (method not given) [1, 4]: 90%

Substance: H-HGEGSFSDELNTILESLAARDFISWLISTKITDKKKKKK-NH2
- final purity (method not given) [1, 4]: 96%

Substance: H-HGEGSFSDELNTILESLAASDFISWLISTKITD-NH2
- final purity (method not given) [1, 4]: 74%

Substance: H-HGEGSFSDELNTILESLAASDFISWLISTKITDKKKKKK-NH2
- final purity (method not given) [1, 4]: 94%

Substance: H-HGEGSFSDELSTILEALAAADFIAWLIATKITD-NH2
- final purity (method not given) [1, 4]: 94%

Substance: H-HGEGSFSDELSTILEALAAADFIAWLIATKITDKKKKKK-NH2
- final purity (method not given) [1, 4]: 92%

Substance: H-HGEGSFSDELSTILEALAASDFISWLISTKITD-NH2
- final purity (method not given) [1, 4]: 89%

Substance: H-HGEGSFSDELSTILEALAASDFISWLISTKITDKKKKKK-NH2
- final purity (method not given) [1, 4]: 95%

Substance: H-HGEGSFSDELSTILESLAAADFIAWLIATKITD-NH2
- final purity (method not given) [1, 4]: 96%

Substance: H-HGEGSFSDELSTILESLAAADFIAWLIATKITDKKKKKK-NH2
- final purity (method not given) [1, 4]: 93%

Substance: H-HGEGSFSDELSTILESLAASDFISWLISTKITD-NH2
- final purity (method not given) [1, 4]: 62%

Substance: H-HGEGSFSDELSTILESLAASDFISWLISTKITDKKKKKK-NH2
- final purity (method not given) [1, 4]: 96%

Substance: H-HGEGSFSSELSTILDALAARDFIAWLIATKITDK-OH
- final purity (method not given) [1, 4]: 88%
